Experimental data: PubChem BioAssay AID504467 (National Center for Advancing Translational Sciences (NCATS), 2011)
In all, about 330,000 compounds went through this assay and about 7,700 (2.3%) were called active. The shares of active, inactive and inconclusive entries below differ from those in the screen. The call rests on the fitted dose curve; in most records, active means well fitted inhibition curve with a large enough effect; inconclusive means small, poorly fitted or top-dose-only effect, or effect the other way; inactive means flat fitted curve, though single readings scatter. Potencies beside an inconclusive call are fits to weak or partial responses and may not hold up.

Test: qHTS screen for small molecules that inhibit ELG1-dependent DNA repair in human embryonic kidney (HEK293T) cells expressing luciferase-tagged ELG1; further: nearly all actives have a fitted effect of over 55% in size
Details: HEK293T ELG1-luciferase reporter, luminescence, 16 h, DNA damage induced by 5-fluorouridine; series mostly up to 46.1 µM
In short: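 Reporter activity after DNA damage by 5-fluorouridine is monitored. Compound-treated cells incubate 16 hr at 37 °C, then ONE-Glo is added for 30 min before luminescence reading.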
Potency means the concentration at half of the fitted maximal effect.

Row | Compound | Potency
1 | CCc1cccc(NC(=O)C2CCN(S(=O)(=O)c3ccc4c(c3)CC(C)N4C(C)=O)CC2)c1 (configuration not stated) | inconclusive: 13 µM [inhibitor, partial curve, poor fit]
2 | CC(=O)N/C(=C\c1ccccc1)C(=O)OCC(=O)N(CC(C)C)c1c(N)n(Cc2ccccc2)c(=O)[nH]c1=O | inactive
3 | Cc1cccnc1NC(=O)CN1C(=O)COc2ccc(Cl)cc21 | inactive
4 | COC(=O)c1sc2ccccc2c1-n1cccc1C(=O)C(=O)Nc1ccc(F)cc1 | active: 14.6 µM
5 | O=C(c1ccco1)N1CCN(c2ncnc3c2oc2ccccc23)CC1 | inconclusive: 8.2 µM [activator, partial curve]
6 | CCc1ccccc1NC(=O)CN(C)C(=O)CSc1nnc(Nc2cccc(C)c2C)s1 | inconclusive: 16.4 µM [inhibitor, single point]
7 | COc1ccccc1N1CCN(C(=O)COc2ccc(S(=O)(=O)NC(C)(C)C)cc2)CC1 | inconclusive: 18.3 µM [inhibitor, partial curve]
8 | COCCOc1cc2ncnc(N3CCC(C(=O)O)CC3)c2cc1OCCOC | inconclusive: 23.1 µM [activator, single point]
9 | Cc1ccc(CN2CCN(/N=C/c3cccn3C)CC2)c(C)c1 | inconclusive: 18.3 µM [inhibitor, partial curve, poor fit]
10 | CCOC(=O)c1cnc2c(C(F)(F)F)cccc2c1N1CCOCC1 | inconclusive: 23.1 µM [inhibitor, single point]
11 | c1ccc2c(c1)[nH]c1c3ccccc3sc21 | inconclusive: 20.6 µM [inhibitor, single point]
12 | NS(=O)(=O)c1ccc(N/N=C/c2ccc(O)cc2O)c([N+](=O)[O-])c1 | inconclusive: 9.2 µM [inhibitor, partial curve]
13 | COc1ccc(-c2ccc(-c3noc(-c4cccs4)n3)c(OC)n2)cc1 | inconclusive: 20.6 µM [activator, single point]
14 | COC(=O)CSc1nnc(-c2sc3ccccc3c2Cl)o1 | inactive
15 | Cc1ccc2cccnc2c1N | inactive
16 | C=CCn1c(SC(C)C(=O)NCc2ccc3c(c2)OCO3)nnc1C1CCCCC1 (configuration not stated) | inconclusive: 35.5 µM [inhibitor, single point]
17 | Cc1c(CCC(=O)N2CCC(C(=O)O)(c3ccccc3)CC2)c(=O)oc2cc3oc4c(c3cc12)CCCC4 | inactive
18 | NC(=O)N1c2ccccc2C=Cc2ccccc21 | inactive
19 | Cc1cccc(-n2ncc3c(NCCc4ccc(S(N)(=O)=O)cc4)ncnc32)c1 | inconclusive: 14.6 µM [inhibitor, partial curve, poor fit]
20 | CCCCOC(=O)c1ccc(NC(=O)C2CCCO2)cc1 (configuration not stated) | inconclusive: 9.2 µM [activator, partial curve]
21 | O=C(c1cccc(S(=O)(=O)N2CCCC2)c1)c1nnc(-c2ccncc2)o1 | inconclusive: 20.6 µM [inhibitor, partial curve]
22 | O=C1c2ccccc2NC(c2cccc(O)c2)N1c1ccccc1 (configuration not stated) | inactive
23 | COC(=O)NNC(=O)C(C)Oc1ccc(Cl)cc1Cl (configuration not stated) | inactive
24 | CS(=O)(=O)c1ccccc1-c1nnc(NC(=O)c2ccco2)o1 | inactive

Exported as a markdown table: part of the list above.

| Row | Compound | Potency |
| --- | --- | --- |
| 22 | O=C1c2ccccc2NC(c2cccc(O)c2)N1c1ccccc1 (configuration not stated) | inactive |
| 23 | COC(=O)NNC(=O)C(C)Oc1ccc(Cl)cc1Cl (configuration not stated) | inactive |
| 24 | CS(=O)(=O)c1ccccc1-c1nnc(NC(=O)c2ccco2)o1 | inactive |

Remaining list, next part.

Row | Compound | Potency
25 | CSc1ccccc1C(=O)NCCCn1ccnc1 | inactive
26 | COc1ccc(OCC(=O)N/N=C(\C)CC(=O)Nc2ccc(OC)cc2[N+](=O)[O-])cc1 | inactive
27 | COc1ccc(-c2cnc3c(c2)CCC3(C#N)C#N)cc1 | inactive
28 | CCOC(=O)C1CCCN(Cc2cccc(Cl)c2)C1 (configuration not stated) | inconclusive: 14.6 µM [activator, partial curve]
29 | CCc1ccccc1N(C)S(=O)(=O)c1cc(-c2cc(C)no2)ccc1OC | inconclusive: 29.1 µM [inhibitor, single point]
30 | Cc1ccc(C)c(CS(=O)(=O)c2cn(CC(=O)N3CCCCC3)c3ccccc23)c1 | inconclusive: 29.1 µM [inhibitor, partial curve, poor fit]
31 | COc1ccc(NC(=O)c2oc3ccccc3c2NC(=O)c2ccco2)c(OC)c1 | inconclusive: 4.61 µM [inhibitor, full curve]
32 | CCCCOc1ccc(-c2nnn(C(C)(C)C(=O)OC)n2)cc1 | inconclusive: 11.6 µM [activator, partial curve]
33 | Cc1ccc(NC(=O)CN(C)S(=O)(=O)c2cccc3nsnc23)cc1Cl | inconclusive: 29.1 µM [inhibitor, single point]
34 | O=C(NNC(=O)C1CCCCC1)c1ccco1 | inactive
35 | COC(=O)C1=C(C)N(CCc2cc(OC)c(OC)c(OC)c2)C(=O)N[C@H]1c1ccc(Br)cc1 | inconclusive: 16.4 µM [inhibitor, partial curve, poor fit]
36 | Cc1cc(=O)[nH]c(N/N=C/c2ccc(-c3ccc(F)cc3)o2)n1 | inconclusive: 13 µM [activator, partial curve]
37 | Cn1cccc1CC(=O)NNC(=S)NC(=O)c1ccccc1Br | inconclusive: 25.9 µM [inhibitor, single point]
38 | Cc1nnc(NC(=O)c2ccc(S(=O)(=O)N3CCc4ccccc4C3)cc2)o1 | inconclusive: 20.6 µM [inhibitor, single point]
39 | O=C(c1ccc2c(c1)OCO2)N1CCc2ccccc2C1 | inconclusive: 17.8 µM [activator, partial curve]
40 | Cc1cc(-c2nnc(SCc3cccnc3)o2)no1 | inconclusive: 12.6 µM [activator, single point]
41 | Cc1ccc2nc(-c3ccc(NS(C)(=O)=O)cc3)cc(-c3ccccc3)c2c1 | inconclusive: 29.1 µM [inhibitor, single point]
42 | CCCN(CC(=O)Nc1ccccc1C)C(=O)c1ccc(N2CCCCC2)c([N+](=O)[O-])c1 | inactive
43 | CN1CCN(C(=O)CN(C2CCCCC2)S(=O)(=O)c2ccc(Br)cc2)CC1 | inactive
44 | O=C(O/N=C(\c1ccccc1)c1ccccn1)c1ccc(Cl)c(Cl)c1 | inactive
45 | Cc1ccc(-c2ccc(=O)[nH]n2)cc1 | inactive
46 | Cc1ccc(OCC(=O)OCC(=O)NC2CC2)cc1C | inactive
47 | N/C(Cc1cccc2ccccc12)=N\OC(=O)Cc1cccs1 | inconclusive: 29.1 µM [activator, single point]
